In all, about 33,000 sequences were measured (“E-score (-0.5 to 0.5)”: median about -8e-05, highest 2% from about 0.23 on). The list shows a part of the results.

The experiment deals with T1, Nrg2 (UniProt P38082).
T1 sequence: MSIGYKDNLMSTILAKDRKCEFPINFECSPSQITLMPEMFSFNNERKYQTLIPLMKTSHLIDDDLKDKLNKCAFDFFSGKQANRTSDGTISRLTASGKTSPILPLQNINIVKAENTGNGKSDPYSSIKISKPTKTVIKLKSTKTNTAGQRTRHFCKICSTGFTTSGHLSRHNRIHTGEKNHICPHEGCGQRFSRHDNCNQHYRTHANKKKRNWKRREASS
Briefly: PBM E-score (8-mer binding enrichment) (E-score (-0.5 to 0.5)); higher = stronger / more preferred TF binding. To be noted: protein concentration: 100 nM; construct: GST-full length. A digest of the protocol:
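Universal all-10-mer Agilent arrays, double-stranded by primer extension on fresh or once-stripped slides, were probed with about 100-200 nM GST-tagged yeast transcription factors made by PURExpress. Fluorescent anti-GST detected bound protein, and masliner normalised the scans. E-scores from the Universal PBM Analysis Suite were given to each ungapped eight-base word pooled with its reverse complement.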
As to ACAATAGT, the “PBM E-score” value was found to be 0.193.
Take CATCGGAG: the “PBM E-score” value was -0.351.
For the sequence CTGATCAA, the “PBM E-score” value was 0.0271.
For the sequence CCAGCAGA, the “PBM E-score” value stood at 0.096.
With CTGCAAGC, the “PBM E-score” value is -0.154.
As for GAATAGAC, the figure is -0.185; as for GTTGATCA, 0.123.
For CCAAAAGG, the “PBM E-score” value is -0.172.
As for ACATAATA, the figure is 0.295; as for CCTCAATC, 0.0495; as for ACTGATGA, 0.0842.
As for GAAACCGA, the “PBM E-score” value was found to be 0.0852.
For GTGGGTGA, the “PBM E-score” value stood at 0.0988.
Next, AATCTAGG: 0.0956.
Regarding AGCGTGTA, the “PBM E-score” value is -0.107.
As for ACAGTGTG, the “PBM E-score” value came out at 0.0482.
For the sequence GGAATTCA, the “PBM E-score” value came to 0.138.
For the sequence ACAAAACT, the “PBM E-score” value came out at 0.1.
Regarding CAAAAGCG, the “PBM E-score” value is -0.00436.
As to TGACCTCA, the “PBM E-score” value is -0.167.
Next, CACGGGGG: -0.32; GGAGTACA: -0.0248; CAATGCTG: -0.0229.
As to CTTGGCAA, the “PBM E-score” value is -0.133.
With AATTAAGT, the “PBM E-score” value came out at 0.062.
Next, CAGATCTG: 0.0937.
Next, AATTCAGA: 0.0972; CGACAAAC: -0.0817.
As for ACTGGAGC, the figure is -0.282; as for CGTCGTAC, -0.048; as for GGCACGAA, 0.105.
Take CGTTAGCC: the “PBM E-score” value was -0.116.
Regarding TAAGCGGA, the “PBM E-score” value was -0.0382.
Consider ACGCCACT, for which the “PBM E-score” value is -0.0795.
As to CCCAACCC, the “PBM E-score” value was 0.0314.
As for CAGAACTA, the figure is 0.0823; as for ATCCAATA, 0.0988.
Regarding AGTGTACG, the “PBM E-score” value was determined as 0.00599.
On to AGCTACCG, for which the “PBM E-score” value was -0.163.
For CCGTTCTC, the “PBM E-score” value was -0.0977.
In the case of CGCAGCCG, the “PBM E-score” value was -0.21.
Turning to AGAGGGTA, the “PBM E-score” value is -0.0204.
Next, AACTGCTG: -0.181.
Consider AAATAGGA, for which the “PBM E-score” value worked out at 0.105.
In the case of CACTGACG, the “PBM E-score” value is -0.0328.
With GATAATTA, the “PBM E-score” value was found to be 0.0635.
As for CGCTCAAA, the figure is 0.115; as for CCCCGGAG, -0.152.
In the case of AATTCTCT, the “PBM E-score” value is -0.146.
Consider GTCACAAA, for which the “PBM E-score” value is -0.132.
Regarding GCCGCTCC, the “PBM E-score” value is -0.136.
On to ACACCTGT, for which the “PBM E-score” value was -0.062.
As for CAGTTTGA, the figure is 0.0957; as for CGCTGCAA, -0.011; as for AAGGCGCT, -0.0358.
Next, TATAAACA: 0.0233.
In the case of TATGTGCA, the “PBM E-score” value is 0.0106.
As to CGCTGACG, the “PBM E-score” value is -0.152.
As to AATCTGCC, the “PBM E-score” value was 0.0761.
As for ACTGGCCA, the figure is 0.0205; as for GTCTCCGA, -0.0812; as for AAATTAAA, 0.217.
Next, ACGAAACA: 0.0539; GTCTGCCA: -0.122.
Next, AACGTCTT: -0.041; GTACCCTA: 0.189.
Take GCATCAGA: the “PBM E-score” value was 0.112.
Next, ACTAAACT: 0.143; CGTTTAAC: 0.145; AATTGGCT: 0.136.
ATGACAAA: the “PBM E-score” value turned out to be 0.0636.
Next, CGAGCTAG: 0.161; AAGCCACC: -0.198; CCTGAGAG: -0.056.
Next, ACCCGTTC: 0.21.
For AACCGCAT, the “PBM E-score” value stood at 0.104.
Next, AGTTCGCA: 0.073; ATCGCGAC: 0.0998.
Next, CCCAACGG: 0.0588.
Turning to AGAGGACA, the “PBM E-score” value worked out at 0.0483.
Next, ATCTAACC: 0.0422.
Turning to GTGTCATA, the “PBM E-score” value was 0.109.
CGAAGGCG: the “PBM E-score” value was -0.121.
As for GACAGGCC, the “PBM E-score” value was 0.0283.
Turning to CGAAAGGC, the “PBM E-score” value is -0.0186.
Next, GCGGCAGA: -0.17.

These data come from the supplement of paper PMC3334620.
